# Data published in patent US8933267B2, “Compounds for use as anti-ulcer agent and/or anti-Helicobacter pylori agent and pharmaceutical compositions thereof” (King Saud University, priority 2013, dated 2015).
# Marks after values point to notes of the source that are not given here.
# What was measured:
# Swiss albino mice = settings: oral, doses up to 1000 mg/kg, within 24 h
# [1] = test system: absolute alcohol-induced ulcer in rats; test: Antiulcerogenic activity, absolute ethanol-induced ulcer model; format: in vivo, male Wistar rats; settings: for ulcer index: mean, n=6
# Experimental: Evaluation of the anti-ulcerogenic activity was carried out using absolute ethanol-induced ulcer model (Bighettia A. E., Antonio M. A., Kohna L. K., Rehdera V. L. G., Foglioa M. A., Possentia A., Vilelaa L., Carvalho J. E. (2005). Antiulcerogenic activity of a crude hydroalcoholic extract and coumarin isolated from Mikania laevigata Schultz Bip. Phytomedicine, 12, 72-77). Thirty male Wistar rats were divided into 5 groups each of 6 rats. Group 1 received the vehicle and served as control, group 2 received ranitidine (100 mg/kg) and served as standard, groups 3, 4 and 5 received the synthesized compound at doses 25, 50 and 100 mg/kg respectively.
# Rats of all groups were fasted for 24 h then all medications were administered orally. One hour after treatment, the animals received an oral dose of absolute ethanol (1 ml/200 g) and then sacrificed one hour later, by ether inhalation, the stomachs were rapidly removed, opened along their greater curvature and gently rinsed under running tap water.
# Number of lesions in the glandular part of the stomach were measured under an illuminated magnifying microscope (10×). Long lesions were counted and their lengths were measured. Petechial lesions were counted, and then each five petechial lesions were taken as 1 mm of ulcer.
# The lesion scores: The mucosal lesions were quantified by the scoring system (0-5) 0=no damage, 1=Local edema and inflammation without ulcers; 2=One ulcer without inflammation; 3=one to two ulcers with inflammation & lesion diameter <1 cm; 4=More than two ulcers with lesion diameter 1-2 cm; 5=Sever ulceration with lesion diameter >2 cm (Morris et al., 1989).
# Ulcer index: To calculate the ulcer index (mm), the sum of the total length of long ulcers and petechial lesions in each group of rats was divided by its number. The curative ratio was determined according to the formula: % Protection of control ulcer=Control UI−Test UI/Control UI×100
smiles,measurement,setting,value
"CC(C)CC(NCC(=O)Nc1ccc(S(N)(=O)=O)cc1)C(=O)O (centres unmarked) [Compound 5, 4-Methyl-2-[2-oxo-2-(4-sulfamoylphenylamino)ethylamino]pentanoic acid]",behavioral changes and mortality (acute toxicity),Swiss albino mice,did not produce any behavioral changes and mortality
same,ulcer index,[1]; oral 25 mg/kg,9.1** mm
same,ulcer index,[1]; oral 50 mg/kg,4.48** mm
same,effectiveness versus standard ranitidine in reducing ulcer index and ulcer score,[1]; oral 100 mg/kg,significantly more effective than the standard
same,ulcer index,[1]; oral 100 mg/kg,3.64*** mm
